# Test results taken from PubChem BioAssay AID1347423 (Functional Genomics Laboratory (NCATS/FGL), 2020).
# Out of some 52,000 sequences screened, about 210 (0.4%) were called active.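 Rule for the calls: active = gene whose silencing raises cell survival under the drug, median off-target-corrected z-score across its silencing RNAs 2 or more; inactive = the rest.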 The list shows a part of the results.
# Test: Resistance to Poly (ADP-Ribose) Polymerase inhibitor: Gene Identification via Genome-wide siRNA Screen
# Conditions: mouse BRCA2 R2336H ES cells, olaparib, CellTiter-Glo viability; active compounds read high
# How it was run: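 Genome-wide siRNA screen (3 siRNAs/gene, 20 nM) in mouse ES cells carrying hypomorphic BRCA2 R2336H; olaparib 500 nM added 48 h post-transfection, CellTiter-Glo viability 72 h later. Normalized to plate-median negative control; MAD z-scores, gene median, seed-adjusted.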
row,Sequence,z-score
1,GGCUUUUUCUACUUGUUCUTT against Olfr768,inactive: 0.0117
2,GCGAUGUGGACAGAAGUACTT against Cyba,inactive: -1.06
3,GCUCUCCUCAAGUCAAGUGTT against D19Ertd386e,inactive: -1.88
4,CCUGUCUUCUCUCUUGUAUTT against Zswim4,inactive: -1.27
5,GGUGUCUCAUCAUGUUUCCTT against Ccl28,inactive: 0.22
6,GGCACAGACUAAGGUAUAGTT against Adra2c,inactive: 0.75
7,GGUAAAACCCAAUAGUAACTT against Gclm,inactive: 0.487
8,GGAGAUGUUAAGCAAGAAGTT against 2010012F05Rik,inactive: -1.45
9,CCAUACAGAUCGCACCCUGTT against 2310047H23Rik,inactive: 0.664
10,GCCUAUCUACGACCUCAUCTT against Kel,inactive: -0.252
11,GUGCUAUGUGAAGAGCAGCTT against Klri1,inactive: 1.06
12,GCAAAAUGGGAUUUGUCAUTT against Grm1,inactive: 0.61
13,CCGAGUCCAGAACACUCUUTT against Fmr2,inactive: -0.936
14,GGUUACCUCAUUUGACGGATT against BC048671,inactive: 0.943
15,GGAGUACCAGAGUAUAUGATT against BC016495,inactive: -1.98
16,GGAUCAAUGGAUUCUGCACTT against 2310056P07Rik,inactive: -0.65
17,GGUACAACUGUAAAUAUUCTT against Npc1,inactive: 0.26
18,GACAGUGAUCACUUGUGGUTT against Ly6g6d,inactive: 0.553
19,GAGUGCUACAUUACGUACCTT against LOC435285,inactive: 0.291
20,GCUAAGAAACUGGUCUCAUTT against Reg4,inactive: 0.53
21,GCAUCCCUUCCGAGAAACATT against Bat3,inactive: -1.15
22,CCAGUCCUUGAAAAGAGCUTT against Olfr128,inactive: 0.716
23,GGACAUCUAUGAGUUUAGCTT against AI194308,inactive: -0.625
24,GGAAAGGAUACGAGACAAUTT against Kctd2,inactive: -0.282
25,GGUGACUGGAAAAGAGGCUTT against Spink3,inactive: -1.84
26,CCAAUCGUAAUGACAAUUCTT against Myo1d,inactive: 0.164
27,GGUAUCUGCAUGUCUUAAUTT against Snx14,inactive: -1.88

row,Sequence,z-score
1,CCGAUAUGUGAAAAUUAAGTT against Rpl32,inactive: -1.48
2,GCCUAUCAUCGAGUGUGUATT against Gphb5,inactive: -0.954
3,GGAAGAUUCCUUAACCAAGTT against Setmar,inactive: 1.01
4,CGAAUAGGGAGCCAUAAGATT against 2310057H16Rik,inactive: 3.19
5,GGUCCUUUACAUGAACCGCTT against Vps18,inactive: -1.12
6,UAAAAAUGAGCCGGGCAAUTT against Ms4a5,inactive: -0.696
7,GGAUAUCACAUUUGUUGCUTT against Anapc4,inactive: -2.35
8,GCUAGUUAUCUAAUCUCUGTT against B230104P22Rik,inactive: -1.64
9,GGUAAAGAUCUGGAGACGATT against Pgam1,inactive: -0.422
10,GGAGAAGCGGCAAAUGGAATT against 2510049I19Rik,inactive: -0.608
11,GGACCAAAACACUACCAAUTT against Tinag,inactive: -0.874
12,GGCCUUCAGCACUUGUGUGTT against Olfr585,inactive: 0.495
13,CCAAGUUCUAUCAACGAAGTT against Olfr174,inactive: 1.52
14,GCUGCCAAUACAAAUUGUCTT against Nalp9a,inactive: 0.188
15,GGUCAAACUGAAGAAGGAGTT against Slc7a7,inactive: 1.64
16,GGAAGUCGGGCAAAUACAATT against Tacstd2,inactive: -0.281
17,CGGCUUACCAGUCCUGUUUTT against Gpr124,inactive: -1.2
18,GGUCCAAAGAUAGAAGCCATT against 4930569K13Rik,inactive: 1.06
19,GGACCAGUUCCUUAAGUUUTT against 1100001I19Rik,inactive: 0.345
20,GGCGCAGUAAAGAGGAGAUTT against Ccnb3,inactive: -2.02
21,GGCUUUAACUAAUUAUGGATT against Pcm1,inactive: 0.363
22,GGUGGACUAUCCUAAGCACTT against Pdzk4,inactive: 0.604
23,GCUAAAGUGAGCAGCGGGATT against Rgs19ip3,inactive: -0.816
24,CCAUUGAUCUCGUCUCCCATT against Impdh1,inactive: -0.511
25,GAGUCAAAACAGCAGUGCATT against Cpsf4,inactive: -0.477
26,GCUUUUCUUCUUCAUCUCUTT against Olfr1336,inactive: 0.0717
27,GCUGCUGAGGUACUUGCUATT against Pcsk1n,inactive: -1.22

# Exported as tab-separated lines: entries from further up.
row	Sequence	z-score
22	CCAGUCCUUGAAAAGAGCUTT against Olfr128	inactive: 0.716
23	GGACAUCUAUGAGUUUAGCTT against AI194308	inactive: -0.625
24	GGAAAGGAUACGAGACAAUTT against Kctd2	inactive: -0.282

# (cont.)

row,Sequence,z-score
1,GCACAUAGUGUAUCUAUACTT against Cd86,inactive: 0.859
2,GCCUGAUGAAGACAUGCAUTT against BC050210,inactive: 1.78
3,GGUAACCAUUUCUUCUGUUTT against Crym,inactive: -1.38
4,GGCUUCAAGAUGUUCGGCUTT against BC023181,inactive: 1.09
5,GCAAUGGUUUCGGCUACGATT against Hoxb3,inactive: 0.478
6,GCUGAGCAAUCUGUAGGGCTT against Spry3,inactive: 1.87
7,GGCAAAAUCCCAUACGAAATT against Itk,inactive: 1.46
8,CGCUUUCACGACAUGGAACTT against Tas1r1,inactive: 1.33
9,GGAGAAGAUCGGAUGGCGATT against Itgb5,inactive: -0.391
10,GGAGGACACAGAUUCUACUTT against 9830169C18Rik,inactive: 1.82
11,CCACAGGUUACAACAUAAATT against Pign,inactive: -0.0296
12,CCUAUCAUUGGACCUUAAATT against 4930435C18Rik,inactive: -0.879
13,GGAUAUGACUAGGUGAAUUTT against Ebf3,inactive: -0.0915
14,GGAGUCAUAUCACAACUCATT against Ldb2,inactive: -0.227
15,GGGAAUAUAAUUAAAGGUGTT against Sptlc2,inactive: -1.3
16,GCUUCAAAAGUCUCCAUUGTT against Gm587,inactive: -0.254
17,GUGGGAAUUCUGAAAAAUATT against V1re7,inactive: -0.115
18,CCUCUCUAGGCCAUGUUCUTT against 1110008P14Rik,inactive: -2.04
19,GGAAAUUUUUUCCUUUCCUTT against Olfr211,inactive: -0.146
20,GGCUGAGGUGCUACAUACATT against BC005752,inactive: -0.03
21,GGUCACAAGUGUAAUACUATT against Bag4,inactive: -2.34
22,GCACAAGACUCUUUCAGUUTT against Lip1,inactive: 0.234
23,GGAAUUCAAGUUCAUCCUGTT against P2ry4,inactive: 0.0867
24,GCAACAAAGGCUUUCCCUATT against Tusc5,inactive: -1.9
25,GGCCAUUUUGGAUCAUACATT against Actl6a,inactive: -1.98
26,GGUUCAGUAUAUCAUCUCUTT against Znf335,inactive: -3.03
27,GGUAAUCUUUGAAAACCCUTT against 9030406N13Rik,inactive: 0.772

# 3 entries picked at random from those above, as already listed:
row,Sequence,z-score
17,CGGCUUACCAGUCCUGUUUTT against Gpr124,inactive: -1.2
12,GCAAAAUGGGAUUUGUCAUTT against Grm1,inactive: 0.61
10,GGAGGACACAGAUUCUACUTT against 9830169C18Rik,inactive: 1.82

# Next records.

row,Sequence,z-score
1,GGACUACAGAUGCAUACCATT against 9830163H01Rik,inactive: -0.329
2,GCCAUACCCUCCAAUAAAGTT against 1810043G02Rik,inactive: -0.367
3,CGCAGGAACACCGAUGUAUTT against D8Ertd319e,inactive: -0.81
4,GCUUACAUGCACUAGCCUGTT against AI114950,inactive: -0.369
5,GGGACACCUUCCGUAACUATT against Gcdh,inactive: -0.691
6,GGAUAUGGCCCAGUUCAUATT against Gfer,inactive: -0.951
7,GCUCACACUUUAAAGAGGGTT against Supv3l1,inactive: 0.449
8,AGUGCUUUGUAAUGCUUGGTT against Hist1h2bg,inactive: -1.23
9,GGAGUGGAUGUGAUUAUCATT against Dao1,inactive: 0.369
10,GGCAUGUUUGAGUUUCAGATT against Lsm4,inactive: -2.43
11,GGACCUUACUAACUUGACCTT against 4921529O18Rik,inactive: 1.08
12,GGAUCUGAAAGACUAUUUCTT against Tardbp,inactive: 0.109
13,GGCAAUGAGAAAGUUACUCTT against Olfr1102,inactive: 0.632
14,GGGUAGAAUUGUUUUCCUUTT against Clic4,inactive: 1.45
15,GGCUGUAAGGGAACAGCUATT against Irf2bp1,inactive: 0.313
16,GCUAGAUUUGAUGGUUCAGTT against Cacng5,inactive: -0.84
17,GGCAAGAGCGGAAAAUCACTT against Foxo1,inactive: -0.519
18,CCUUGGAAAAGCUUGAUGUTT against Pip5k1b,inactive: -2.5
19,GGUGAAGGUGAACAAGGACTT against Myh9,inactive: 0.383
20,GGAAACAACCUGCUGAUCGTT against Sp2,inactive: 0.563
21,GCUGAAACAGUUUGAGCGATT against Bcar1,inactive: -1.01
22,GGGUGCAUUUAAGUUCUAATT against Nrbf2,inactive: -1.06
23,GGUUACGUGAGGAUAAAAUTT against Gm587,inactive: -0.827
24,GGACUAUUUCCUUUGUGGGTT against Olfr31,inactive: 0.697
